Results are given in words; binding and its absence hold for the method and conditions named. Binding seen in cells or lysates may run through a third protein. Some entries that bind do so weakly or less than the wild type.
T1: SATB1 (UniProt Q01826)
T1 sequence: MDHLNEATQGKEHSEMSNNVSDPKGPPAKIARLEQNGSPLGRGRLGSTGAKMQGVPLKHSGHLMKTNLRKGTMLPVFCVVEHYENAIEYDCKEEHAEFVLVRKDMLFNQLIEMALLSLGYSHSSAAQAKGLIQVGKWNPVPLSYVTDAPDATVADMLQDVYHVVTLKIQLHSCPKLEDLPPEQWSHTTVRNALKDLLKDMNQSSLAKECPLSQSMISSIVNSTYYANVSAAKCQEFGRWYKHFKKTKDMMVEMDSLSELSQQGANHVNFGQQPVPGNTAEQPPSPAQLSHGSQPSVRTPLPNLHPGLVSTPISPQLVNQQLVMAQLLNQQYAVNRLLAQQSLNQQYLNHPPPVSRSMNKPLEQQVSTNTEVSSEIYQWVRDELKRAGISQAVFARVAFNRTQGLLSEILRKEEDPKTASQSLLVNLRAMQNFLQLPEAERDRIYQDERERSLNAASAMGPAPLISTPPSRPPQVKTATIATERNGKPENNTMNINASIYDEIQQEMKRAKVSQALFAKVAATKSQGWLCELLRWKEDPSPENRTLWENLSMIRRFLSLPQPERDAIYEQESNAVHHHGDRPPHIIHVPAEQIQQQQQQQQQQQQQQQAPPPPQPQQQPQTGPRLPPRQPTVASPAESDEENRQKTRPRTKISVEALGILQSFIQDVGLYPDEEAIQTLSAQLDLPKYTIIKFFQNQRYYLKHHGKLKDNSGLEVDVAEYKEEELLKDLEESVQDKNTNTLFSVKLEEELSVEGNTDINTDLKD

Amino acid sequences for entries named in this document (tags omitted). A change or cut given only in a name is not applied to a line headed by its entry.
UniProt P35222: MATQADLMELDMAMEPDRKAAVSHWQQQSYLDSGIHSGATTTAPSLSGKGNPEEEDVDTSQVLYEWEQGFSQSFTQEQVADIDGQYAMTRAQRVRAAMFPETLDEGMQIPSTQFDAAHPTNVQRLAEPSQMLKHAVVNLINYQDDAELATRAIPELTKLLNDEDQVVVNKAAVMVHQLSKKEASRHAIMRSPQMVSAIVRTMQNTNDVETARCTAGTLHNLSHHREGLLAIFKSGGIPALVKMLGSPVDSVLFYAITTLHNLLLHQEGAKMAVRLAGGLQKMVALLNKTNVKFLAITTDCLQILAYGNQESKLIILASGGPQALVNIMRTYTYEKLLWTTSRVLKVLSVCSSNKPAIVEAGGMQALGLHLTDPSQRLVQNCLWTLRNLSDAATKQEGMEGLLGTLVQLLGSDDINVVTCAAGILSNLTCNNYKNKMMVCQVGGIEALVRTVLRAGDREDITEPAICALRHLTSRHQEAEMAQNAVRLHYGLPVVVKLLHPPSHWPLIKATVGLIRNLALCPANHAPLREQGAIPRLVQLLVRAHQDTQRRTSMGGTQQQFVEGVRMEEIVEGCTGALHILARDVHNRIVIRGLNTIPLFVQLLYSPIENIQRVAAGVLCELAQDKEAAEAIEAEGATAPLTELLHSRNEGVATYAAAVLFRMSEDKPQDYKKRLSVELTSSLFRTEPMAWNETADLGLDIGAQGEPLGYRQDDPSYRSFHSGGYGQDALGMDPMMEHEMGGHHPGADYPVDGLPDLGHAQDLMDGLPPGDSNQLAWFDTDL


Legend:
SATB1 = molecular target: T1, SATB1; test: co-IP; HEK 293T cells overexpressing VP-16 fused regions of β-catenin; anti-SATB1, WB with anti-β-catenin
GST-β-catenin = GST-β-catenin (UniProt P35222); test: pull-down; in vitro pulldown; GST-β-catenin or control GST immobilized, incubated with 35S-labeled SATB1; only the target purified

binding (SATB1)	binding (GST-β-catenin)	Molecule
binds	–	VP-16 fused C-terminal region of β-catenin (aa 666–780) (from UniProt P35222 666-780) (domain or fragment)
no binding	–	VP-16 fused N-terminal region of β-catenin (aa 1–137) (from UniProt P35222 1-137) (domain or fragment)
–	binds	35S-labeled SATB1 (protein, UniProt Q01826 1-763, 35S label) MDHLNEATQGKEHSEMSNNVSDPKGPPAKIARLEQNGSPLGRGRLGSTGAKMQGVPLKHSGHLMKTNLRKGTMLPVFCVVEHYENAIEYDCKEEHAEFVLVRKDMLFNQLIEMALLSLGYSHSSAAQAKGLIQVGKWNPVPLSYVTDAPDATVADMLQDVYHVVTLKIQLHSCPKLEDLPPEQWSHTTVRNALKDLLKDMNQSSLAKECPLSQSMISSIVNSTYYANVSAAKCQEFGRWYKHFKKTKDMMVEMDSLSELSQQGANHVNFGQQPVPGNTAEQPPSPAQLSHGSQPSVRTPLPNLHPGLVSTPISPQLVNQQLVMAQLLNQQYAVNRLLAQQSLNQQYLNHPPPVSRSMNKPLEQQVSTNTEVSSEIYQWVRDELKRAGISQAVFARVAFNRTQGLLSEILRKEEDPKTASQSLLVNLRAMQNFLQLPEAERDRIYQDERERSLNAASAMGPAPLISTPPSRPPQVKTATIATERNGKPENNTMNINASIYDEIQQEMKRAKVSQALFAKVAATKSQGWLCELLRWKEDPSPENRTLWENLSMIRRFLSLPQPERDAIYEQESNAVHHHGDRPPHIIHVPAEQIQQQQQQQQQQQQQQQAPPPPQPQQQPQTGPRLPPRQPTVASPAESDEENRQKTRPRTKISVEALGILQSFIQDVGLYPDEEAIQTLSAQLDLPKYTIIKFFQNQRYYLKHHGKLKDNSGLEVDVAEYKEEELLKDLEESVQDKNTNTLFSVKLEEELSVEGNTDINTDLKD

Source: PMC9683845
